Consider one substance from paper PMC10531356, “Hardening of Respiratory Syncytial Virus Inclusion Bodies by Cyclopamine Proceeds through Perturbation of the Interactions of the M2-1 Protein with RNA and the P Protein” (International Journal of Molecular Sciences, 2023).

By UniProt entry, the sequences of proteins in these tests, tags left out.
UniProt P12579: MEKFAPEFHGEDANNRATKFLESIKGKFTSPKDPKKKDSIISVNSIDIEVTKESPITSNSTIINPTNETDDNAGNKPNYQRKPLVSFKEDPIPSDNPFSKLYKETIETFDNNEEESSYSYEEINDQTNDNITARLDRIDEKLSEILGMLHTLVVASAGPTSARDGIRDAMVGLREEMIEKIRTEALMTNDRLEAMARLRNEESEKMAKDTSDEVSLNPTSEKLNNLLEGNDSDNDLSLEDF

Where two headings read alike, the source gives them in different places. These are yes or no findings as the source states them, for the method shown. Some binding calls cover weakened binding; strength is not graded here. Tags and fused reporters may be left off the sequences shown.

The target of assay [1] is T1, GST-M2-1core (human respiratory syncytial virus (hRSV), strain Long) (UniProt P04545).
T1 sequence: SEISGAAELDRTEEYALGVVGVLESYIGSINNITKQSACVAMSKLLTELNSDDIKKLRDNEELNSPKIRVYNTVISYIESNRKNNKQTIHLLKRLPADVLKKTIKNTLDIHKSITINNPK
The assay is described as follows: pull-down; GST-M2-1core on beads incubated with purified P in PBS, 1 h at 4 °C, with 400 µM CPM or DMSO; then 160 µg/mL tRNA 30 min; SDS-PAGE and Coomassie; both purified.

Assay [2] concerns the target T1, GST-M2-1core (human respiratory syncytial virus (hRSV), strain Long). The assay is described as above. The source holds these as a separate data set.

Turning to “recombinant P protein (phosphoprotein, wild type) (from UniProt P12579 1-241)”, the binding entry is “no binding (condition: with tRNA (160 µg/mL), without CPM)” in assay [1] and “binds” in assay [2].
